Values of other authors as cited in PMC8494430, “Development of a fluorogenic ADAMTS-7 substrate” (Journal of Enzyme Inhibition and Medicinal Chemistry, 2021).
The structures given here were assigned with low confidence; some may be wrong.

By UniProt entry, the sequences of proteins in these tests, tags left out. Residues count along the entry.
UniProt Q9UNA0, 262-930 limits assumed: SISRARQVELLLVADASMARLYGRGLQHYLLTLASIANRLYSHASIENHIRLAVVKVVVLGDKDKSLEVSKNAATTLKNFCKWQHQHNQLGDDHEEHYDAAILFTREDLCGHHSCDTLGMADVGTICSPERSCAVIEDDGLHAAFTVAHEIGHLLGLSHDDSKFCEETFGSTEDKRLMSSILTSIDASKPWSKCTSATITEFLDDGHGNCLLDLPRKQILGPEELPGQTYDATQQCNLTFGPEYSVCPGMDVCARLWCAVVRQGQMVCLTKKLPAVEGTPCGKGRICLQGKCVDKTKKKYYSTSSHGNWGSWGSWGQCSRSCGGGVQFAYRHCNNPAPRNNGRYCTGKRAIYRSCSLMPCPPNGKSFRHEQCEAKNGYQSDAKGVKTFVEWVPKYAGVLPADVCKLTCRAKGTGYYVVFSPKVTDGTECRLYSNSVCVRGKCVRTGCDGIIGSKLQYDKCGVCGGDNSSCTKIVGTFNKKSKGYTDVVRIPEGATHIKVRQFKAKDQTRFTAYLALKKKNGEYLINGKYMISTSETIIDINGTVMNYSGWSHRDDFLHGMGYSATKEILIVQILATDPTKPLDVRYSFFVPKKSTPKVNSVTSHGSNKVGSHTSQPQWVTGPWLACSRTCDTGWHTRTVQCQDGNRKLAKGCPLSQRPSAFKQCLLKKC

Molecular target: ADAMTS-5 (Homo sapiens, UniProt Q9UNA0)
Details: read-out: Km of substrate for ADAMTS-5; used for Cheng-Prusoff, [S] 40; ref 2 (Supplementary References); cited from earlier work

## CC[C@H](C)[C@H](NC(=O)[C@H](C)NC(=O)CNC(=O)[C@H](CCCNC(=N)N)NC(=O)[C@H](CO)NC(=O)[C@H](CCC(=O)O)NC(=O)[C@H](CO)NC(=O)[C@H](CCC(=O)O)NC(=O)[C@@H](NC(=O)c1ccccc1N)[C@@H](C)O)C(=O)N[C@@H](Cc1ccc(O)cc1)C(=O)N[C@@H](CNc1ccc([N+](=O)[O-])cc1[N+](=O)[O-])C(=O)N[C@@H](CCCCN)C(=O)N[C@@H](CCCCN)C(=O)O
  Km: 76 µM
